Measurements: article PMC12255304
The exact form of at least one protein or probe is not confirmed.

Biological target: FgRlm1-Strep (UniProt I1RY98)
Assay: EMSA
Details: recombinant protein; protein details: C-terminal Strep-tag (modified pET28b)

Row | Sequence | binding result
1 | TGATGCTGTTGATGTTGATGCTGTTGATGTTGATGCTGTTGATGT (double strand) [cis-element 1 WT probe (three repeats)] | binds
2 | TGCTATTTTTGGTGCTATTTTTGGTGCTATTTTTGG (double strand) [cis-element 2 WT probe (three repeats)] | binds
